In PubChem BioAssay AID1487 (National Center for Advancing Translational Sciences (NCATS), 2009):
This is one part of the list. Shown are side measurements of this screen, not its main read-out; they come without a call. The list favours compounds with an active or inconclusive main result. Potencies come from curve fits of mixed quality, noted in brackets.

Assay: qHTS Assay for Modulators of Lamin A Splicing
Conditions: HeLa LMNA splicing GFP/RFP minigene ratio, 48 h
Outline: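 S3 HeLa stable clones carrying a lamin A-EGFP splicing minigene plus DsRed2 were seeded at 600 cells/well in Opti-MEM with 2% FBS, pin-dosed and incubated 48 h at 37°C. Acumen cytometry (488 nm) gave the GFP/RFP total-intensity ratio.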

[1] = measured here: GFP splicing reporter channel
[2] = measured here: RFP viability control channel

Cc1ccc(C(=O)CSC2=C(C#N)C(c3ccco3)C3=C(CC(C)(C)CC3=O)N2)cc1 (configuration not stated)
AC50 [1]: 14.1 µM [rising, single point]
AC50 [2]: 35.5 µM [rising, single point]

C/C(=N\NC(=O)C(N)=O)c1ccc(NC(=O)c2cccs2)cc1
AC50 [2]: 0.00501 µM [falling, full curve, poor fit]

Cc1cccc(S(=O)(=O)Nc2cccc(-c3cn4ccsc4n3)c2)c1
AC50 [1]: 8.91 µM [rising, partial curve, poor fit]
AC50 [2]: 14.1 µM [rising, partial curve]

CCc1ccc(OCC(=O)N(Cc2cccs2)c2ccc(Cl)cc2)cc1
AC50 [2]: 35.5 µM [rising, single point]

Cc1ccsc1/C=N/NC(=O)c1cccc(S(=O)(=O)Nc2ccccc2Cl)c1
AC50 [1]: 6.31 µM [falling, single point]

Cc1cc(OCCOCCN(C)CCO)cc(C)c1Cl
AC50 [1]: 2.82 µM [rising, partial curve]
AC50 [2]: 1.26 µM [rising, full curve, poor fit]

CCOC(=O)c1cc(CC)sc1/N=C/c1c(O)ccc2ccccc12
AC50 [2]: 12.6 µM [rising, partial curve]

O=C(Cn1ccc(C(F)(F)F)n1)N/N=C/c1ccc(N2CCOCC2)cc1
AC50 [1]: 0.0112 µM [rising, partial curve, poor fit]

CN1CC(c2ccc(Cl)c(Cl)c2)[C@@]2(COc3ccccc3C2=O)[C@@]12C(=O)Nc1ccccc12 (some centres not stated)
AC50 [2]: 35.5 µM [rising, single point]

c1ccc(CSc2ncnc3c2cnn3Cc2ccccc2)cc1
AC50 [2]: 20 µM [rising, single point]

COc1ccc(NC(=S)NNC(=O)CCn2cc([N+](=O)[O-])cn2)cc1
AC50 [2]: 0.00501 µM [rising, full curve]

CC1CCc2sc(C(=O)OCC(=O)NCc3ccccc3)cc2C1 (configuration not stated)
AC50 [2]: 17.8 µM [rising, single point]

Cc1[nH]c2ccccc2c1-c1nc2ccccc2[nH]1
AC50 [2]: 12.6 µM [rising, partial curve]

CCOc1cc(C(=O)Nc2cc(C)ccc2OC)ccc1OCC(=O)N1CCCCC1
AC50 [1]: 10 µM [rising, partial curve, poor fit]

CCOC(=O)N1CCC(n2c(SCC(=O)NCc3ccco3)nc3ccsc3c2=O)CC1
AC50 [2]: 11.2 µM [rising, single point]

Cc1ccc(NC(=O)CSc2nc3ccccc3c3nc(CCn4cncc4C)nn23)cc1F
AC50 [1]: 3.16 µM [falling, partial curve]
AC50 [2]: 25.1 µM [falling, partial curve, poor fit]

CCOc1cccc2sc(N(Cc3cccnc3)C(=O)C3CCCCC3)nc12
AC50 [2]: 35.5 µM [rising, single point]

O=C1C2CCCN2C(c2ccccc2F)N1c1ccc(Cl)cc1 (configuration not stated)
AC50 [1]: 35.5 µM [falling, single point]

COc1ccc(CN(C2CCCC2)S(=O)(=O)c2ccc(-n3cnnn3)cc2)cc1OC
AC50 [1]: 31.6 µM [rising, single point]
AC50 [2]: 35.5 µM [rising, single point]

Cc1ccc(C2=NCCNC2=O)c(C)c1
AC50 [2]: 35.5 µM [falling, partial curve, poor fit]

O=C1c2cccnc2Oc2ccc(Cl)cc2N1Cc1ccc(F)cc1
AC50 [2]: 0.224 µM [rising, full curve, poor fit]

Cc1occc(=O)c1OC(=O)Nc1ccc(Cl)c(Cl)c1
AC50 [1]: 17.8 µM [rising, single point]
AC50 [2]: 28.2 µM [rising, single point]

O=S(=O)(Cc1noc(-c2ccc(Cl)cc2)n1)Cc1ccco1
AC50 [2]: 6.31 µM [rising, single point]

CCc1ccc(OCC(=O)N/N=C/c2ccc(OS(=O)(=O)c3ccc(C)cc3)c(OC)c2)cc1
AC50 [2]: 11.2 µM [rising, partial curve, poor fit]

COc1ccc(C(=O)/C=C/c2ccccc2C(F)(F)F)cc1
AC50 [1]: 35.5 µM [falling, single point]
AC50 [2]: 35.5 µM [falling, single point]

CCCS(=O)(=O)c1ncc(Cl)c(C(=O)N2CCN(c3ccc(OC)cc3)CC2)n1
AC50 [1]: 5.62 µM [falling, partial curve]
AC50 [2]: 3.98 µM [falling, full curve, poor fit]

COc1ccc(CCn2nnnc2C(C(C)C)N2CCN(c3ncccn3)CC2)cc1OC (configuration not stated)
AC50 [2]: 5.62 µM [rising, single point]

Cc1ccc(C(=O)OCC(=O)c2c(N)n(C)c(=O)n(C)c2=O)cc1S(=O)(=O)N1CCCCC1
AC50 [1]: 3.98 µM [rising, partial curve]
AC50 [2]: 14.1 µM [rising, partial curve]

CC1CCN(c2ccc(NC(=O)c3cccc(Cl)c3)cc2C(=O)O)CC1
AC50 [2]: 7.08 µM [falling, partial curve]

O=S(=O)(Nn1cnnc1)c1ccc2ccccc2c1
AC50 [2]: 0.112 µM [falling, full curve, poor fit]

CCOC(=O)c1c(NC(=O)c2cccs2)sc2c1CC(C)(C)OC2
AC50 [2]: 17.8 µM [rising, single point]

COc1ccccc1Oc1ccc(S(=O)(=O)NCc2ccccn2)cc1
AC50 [1]: 3.16 µM [rising, full curve]
AC50 [2]: 7.94 µM [rising, partial curve]

CC(=O)Nc1ccc(NC(=O)c2ccccc2CCc2ccccc2)cc1
AC50 [2]: 0.251 µM [rising, full curve, poor fit]

COc1ccccc1NC(=O)c1ccc(Cl)c(S(=O)(=O)N2CCOCC2)c1
AC50 [2]: 35.5 µM [rising, single point]

COc1ccc(NC(=O)c2c(NC(=O)CNCc3ccco3)sc3c2CCC3)cc1
AC50 [2]: 7.94 µM [rising, partial curve, poor fit]

COc1ccc(OCC(=O)NCC2(N3CCN(C)CC3)CCCCC2)cc1
AC50 [1]: 1.41 µM [falling, full curve]
AC50 [2]: 2.82 µM [falling, partial curve]
